Results taken from article PMC8472562 (Vaccines, 2021).
HELM strings list residues between dots; [ac] is acetyl, [am] amide, other brackets name non-standard units.

Assay: general procedure: Fmoc solid-phase peptide synthesis; Rink amide MBHA resin; HATU/DIEA
Conditions: whole synthesis; for final HPLC purity: RP-HPLC (C4 column) and ESI-MS

Substance	isolated yield [%]	final HPLC purity [%]
PEPTIDE1{[ac].T.S.L.I.A.G.P.K.A.Q.V.E.A.I.Q.K.Y.I.G.A.E.L.K.K.L.I.P.N.A.S.L.I.E.N.C.T.K.A.E.L.S.K.K.K.K.[am]}$$$$V2.0	62	99
PEPTIDE1{[ac].T.S.L.I.A.G.P.K.A.Q.V.E.A.I.Q.K.Y.I.G.A.E.L.K.K.L.I.P.N.A.S.L.I.E.N.C.T.K.A.E.L.S.K.K.K.K.[am]}|PEPTIDE2{[ac].L.L.L.L.L.L.L.L.L.L}$PEPTIDE1,PEPTIDE2,24:R3-11:R2$$$V2.0	50	99
